The target in test [1] is T1, VPS41 (as in the co-immunoprecipitations with KAI1) (UniProt P49754).
T1 sequence: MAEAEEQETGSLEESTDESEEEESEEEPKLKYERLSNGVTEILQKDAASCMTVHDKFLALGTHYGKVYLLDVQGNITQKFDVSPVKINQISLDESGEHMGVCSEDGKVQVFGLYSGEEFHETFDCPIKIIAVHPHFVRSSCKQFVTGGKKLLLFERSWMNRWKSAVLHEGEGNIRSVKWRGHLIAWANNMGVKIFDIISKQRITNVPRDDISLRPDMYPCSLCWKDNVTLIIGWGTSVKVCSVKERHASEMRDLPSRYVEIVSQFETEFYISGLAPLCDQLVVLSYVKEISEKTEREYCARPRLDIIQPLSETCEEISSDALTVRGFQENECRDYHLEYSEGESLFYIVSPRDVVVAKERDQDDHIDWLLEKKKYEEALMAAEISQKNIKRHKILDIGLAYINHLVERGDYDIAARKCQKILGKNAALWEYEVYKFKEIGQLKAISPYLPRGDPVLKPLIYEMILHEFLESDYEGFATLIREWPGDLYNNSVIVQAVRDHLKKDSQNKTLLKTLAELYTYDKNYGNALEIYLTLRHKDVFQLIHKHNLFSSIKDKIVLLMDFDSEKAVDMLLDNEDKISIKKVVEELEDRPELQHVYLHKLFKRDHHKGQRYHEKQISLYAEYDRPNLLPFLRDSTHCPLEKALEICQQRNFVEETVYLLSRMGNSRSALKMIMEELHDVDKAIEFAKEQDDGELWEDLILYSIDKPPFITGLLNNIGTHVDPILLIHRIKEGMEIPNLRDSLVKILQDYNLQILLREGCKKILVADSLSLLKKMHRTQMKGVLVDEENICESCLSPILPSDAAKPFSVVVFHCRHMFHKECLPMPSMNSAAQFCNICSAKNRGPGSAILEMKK
The experiment in a line: co-IP; VPS41 with KAI1 (Figure 5F); also with PNGase F treatment (Figure 5G) and after CQ treatment of the cells (Figure 6E); cells and bait not told in the main text.

In the next test the target is T2, VPS41-1-286 (UniProt P49754).
T2 sequence: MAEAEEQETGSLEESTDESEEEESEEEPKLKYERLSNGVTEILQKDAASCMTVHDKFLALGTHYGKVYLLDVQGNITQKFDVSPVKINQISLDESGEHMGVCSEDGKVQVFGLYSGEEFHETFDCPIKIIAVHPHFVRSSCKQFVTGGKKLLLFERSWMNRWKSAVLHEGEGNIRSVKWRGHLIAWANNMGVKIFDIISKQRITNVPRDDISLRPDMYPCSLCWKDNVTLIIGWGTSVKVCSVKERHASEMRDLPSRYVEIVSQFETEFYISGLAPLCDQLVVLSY
The experiment in a line: co-IP; HEK-293T cells transfected with VPS41 or KAI1 truncation plasmids.

These are yes or no findings as the source states them, for the method shown. In cells and extracts the contact can be indirect. Some entries that bind do so weakly or less than the wild type.

B1: KAI1 (as in the co-immunoprecipitations with VPS41) (protein, UniProt P27701 1-267)
chain: MGSACIKVTKYFLFLFNLIFFILGAVILGFGVWILADKSSFISVLQTSSSSLRMGAYVFIGVGAVTMLMGFLGCIGAVNEVRCLLGLYFAFLLLILIAQVTAGALFYFNMGKLKQEMGGIVTELIRDYNSSREDSLQDAWDYVQAQVKCCGWVSFYNWTDNAELMNRPEVTYPCSCEVKGEEDNSLSVRKGFCEAPGNRTQSGNHPEDWPVYQEGCMEKVQAWLQENLGIILGVGVGVAIIELLGMVLSICLCRHVHSEDYSKVPKY
modifications: glycosylated (the paper speaks of the glycosylation on KAI1)
As for B1, the binding result (in test [1]; with VPS41-1-286) was “binds” each time.

B2: KAI1 treated with the glycosidase PNGase F (protein, UniProt P27701 1-267)
chain: MGSACIKVTKYFLFLFNLIFFILGAVILGFGVWILADKSSFISVLQTSSSSLRMGAYVFIGVGAVTMLMGFLGCIGAVNEVRCLLGLYFAFLLLILIAQVTAGALFYFNMGKLKQEMGGIVTELIRDYNSSREDSLQDAWDYVQAQVKCCGWVSFYNWTDNAELMNRPEVTYPCSCEVKGEEDNSLSVRKGFCEAPGNRTQSGNHPEDWPVYQEGCMEKVQAWLQENLGIILGVGVGVAIIELLGMVLSICLCRHVHSEDYSKVPKY
modifications: treated with the glycosidase PNGase F
In the case of B2, the binding result in test [1] was “binds”.

These data come from PMC12224964.
